Data reported in PMC8513606.

The chains behind the UniProt entries cited, without tags or fusion partners. Where a name states a change or a piece, a line headed by the entry shows the natural chain unless it says otherwise.
UniProt Q61483: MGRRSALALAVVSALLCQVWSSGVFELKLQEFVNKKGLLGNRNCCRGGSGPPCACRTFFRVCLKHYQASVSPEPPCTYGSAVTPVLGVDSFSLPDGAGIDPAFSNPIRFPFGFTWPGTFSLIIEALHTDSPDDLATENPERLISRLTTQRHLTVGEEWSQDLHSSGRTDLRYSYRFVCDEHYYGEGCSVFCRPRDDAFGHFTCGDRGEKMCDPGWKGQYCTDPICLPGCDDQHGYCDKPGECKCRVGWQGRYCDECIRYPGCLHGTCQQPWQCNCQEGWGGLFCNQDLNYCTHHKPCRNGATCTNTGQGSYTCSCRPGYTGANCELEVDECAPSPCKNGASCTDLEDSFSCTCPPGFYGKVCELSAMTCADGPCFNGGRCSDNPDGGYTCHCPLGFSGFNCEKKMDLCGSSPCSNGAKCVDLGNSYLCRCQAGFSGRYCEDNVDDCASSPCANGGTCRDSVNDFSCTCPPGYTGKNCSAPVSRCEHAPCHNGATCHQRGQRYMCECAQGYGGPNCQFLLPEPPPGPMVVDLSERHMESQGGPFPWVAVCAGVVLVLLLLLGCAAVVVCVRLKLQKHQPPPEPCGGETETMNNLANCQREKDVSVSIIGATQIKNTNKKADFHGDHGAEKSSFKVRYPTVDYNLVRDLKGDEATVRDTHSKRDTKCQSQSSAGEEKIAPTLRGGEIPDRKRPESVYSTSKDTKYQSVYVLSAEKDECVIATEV
UniProt P28482: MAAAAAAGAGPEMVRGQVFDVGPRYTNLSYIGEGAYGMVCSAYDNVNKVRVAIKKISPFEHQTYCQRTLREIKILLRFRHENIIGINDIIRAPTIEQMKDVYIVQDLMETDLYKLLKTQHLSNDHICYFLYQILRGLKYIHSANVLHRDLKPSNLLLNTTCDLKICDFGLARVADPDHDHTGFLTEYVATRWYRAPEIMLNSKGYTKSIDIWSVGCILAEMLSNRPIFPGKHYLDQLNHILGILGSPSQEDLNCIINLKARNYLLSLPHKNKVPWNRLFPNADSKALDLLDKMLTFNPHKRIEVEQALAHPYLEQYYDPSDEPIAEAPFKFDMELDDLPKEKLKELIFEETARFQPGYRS
UniProt P27361: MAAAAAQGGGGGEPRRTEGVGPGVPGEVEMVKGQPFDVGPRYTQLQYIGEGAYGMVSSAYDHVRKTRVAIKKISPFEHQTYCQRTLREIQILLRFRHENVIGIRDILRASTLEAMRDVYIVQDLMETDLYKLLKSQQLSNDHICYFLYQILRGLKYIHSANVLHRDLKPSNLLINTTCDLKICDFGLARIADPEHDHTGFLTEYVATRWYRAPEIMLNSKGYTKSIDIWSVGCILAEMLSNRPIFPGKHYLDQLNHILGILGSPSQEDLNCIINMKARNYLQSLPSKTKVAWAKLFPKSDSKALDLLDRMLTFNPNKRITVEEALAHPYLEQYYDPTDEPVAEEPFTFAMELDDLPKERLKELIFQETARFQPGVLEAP
UniProt P62993: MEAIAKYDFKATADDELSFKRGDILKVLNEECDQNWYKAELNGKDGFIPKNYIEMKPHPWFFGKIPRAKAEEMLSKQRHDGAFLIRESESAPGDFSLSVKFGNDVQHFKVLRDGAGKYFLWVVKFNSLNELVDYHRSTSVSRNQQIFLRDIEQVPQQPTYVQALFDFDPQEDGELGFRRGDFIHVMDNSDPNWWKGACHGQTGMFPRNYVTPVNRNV
UniProt Q96QZ7: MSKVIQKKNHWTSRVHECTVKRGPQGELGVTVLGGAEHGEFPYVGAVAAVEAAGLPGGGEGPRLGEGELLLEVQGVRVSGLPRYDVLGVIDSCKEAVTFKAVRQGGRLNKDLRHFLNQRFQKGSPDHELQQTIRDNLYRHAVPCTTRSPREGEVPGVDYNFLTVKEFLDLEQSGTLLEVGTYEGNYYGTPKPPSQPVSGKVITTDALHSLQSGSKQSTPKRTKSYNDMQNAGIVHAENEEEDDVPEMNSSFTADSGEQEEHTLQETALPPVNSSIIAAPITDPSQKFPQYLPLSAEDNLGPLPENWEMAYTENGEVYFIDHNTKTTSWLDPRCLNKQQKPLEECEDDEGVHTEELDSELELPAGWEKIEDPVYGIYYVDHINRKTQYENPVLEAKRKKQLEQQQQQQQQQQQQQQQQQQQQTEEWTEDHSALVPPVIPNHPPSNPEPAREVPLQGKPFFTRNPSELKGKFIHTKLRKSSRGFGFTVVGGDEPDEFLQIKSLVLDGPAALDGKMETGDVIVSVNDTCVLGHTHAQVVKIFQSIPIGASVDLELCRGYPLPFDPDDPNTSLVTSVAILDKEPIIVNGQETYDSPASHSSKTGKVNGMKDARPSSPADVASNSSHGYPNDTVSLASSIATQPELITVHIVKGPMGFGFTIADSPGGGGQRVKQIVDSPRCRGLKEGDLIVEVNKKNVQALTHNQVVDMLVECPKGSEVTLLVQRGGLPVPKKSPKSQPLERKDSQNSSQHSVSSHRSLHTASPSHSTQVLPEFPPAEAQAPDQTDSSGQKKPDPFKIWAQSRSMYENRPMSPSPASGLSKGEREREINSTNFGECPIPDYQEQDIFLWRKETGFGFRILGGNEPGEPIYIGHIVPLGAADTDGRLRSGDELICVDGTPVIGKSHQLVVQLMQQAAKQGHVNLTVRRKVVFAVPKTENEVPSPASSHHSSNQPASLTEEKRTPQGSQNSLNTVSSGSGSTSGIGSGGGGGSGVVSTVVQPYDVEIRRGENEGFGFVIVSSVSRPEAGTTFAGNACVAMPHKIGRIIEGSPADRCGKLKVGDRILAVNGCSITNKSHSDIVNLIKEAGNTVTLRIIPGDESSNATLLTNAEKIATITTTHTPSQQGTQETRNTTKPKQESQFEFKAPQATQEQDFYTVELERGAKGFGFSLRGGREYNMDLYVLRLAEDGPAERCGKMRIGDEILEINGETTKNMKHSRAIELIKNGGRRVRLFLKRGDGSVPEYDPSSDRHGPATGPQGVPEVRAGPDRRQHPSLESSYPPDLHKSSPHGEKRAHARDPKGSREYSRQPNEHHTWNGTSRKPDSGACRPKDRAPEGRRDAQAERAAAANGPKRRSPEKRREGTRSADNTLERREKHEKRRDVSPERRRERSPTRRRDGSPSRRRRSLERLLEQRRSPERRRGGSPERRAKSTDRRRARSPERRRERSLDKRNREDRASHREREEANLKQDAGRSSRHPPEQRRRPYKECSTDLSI
UniProt Q16539: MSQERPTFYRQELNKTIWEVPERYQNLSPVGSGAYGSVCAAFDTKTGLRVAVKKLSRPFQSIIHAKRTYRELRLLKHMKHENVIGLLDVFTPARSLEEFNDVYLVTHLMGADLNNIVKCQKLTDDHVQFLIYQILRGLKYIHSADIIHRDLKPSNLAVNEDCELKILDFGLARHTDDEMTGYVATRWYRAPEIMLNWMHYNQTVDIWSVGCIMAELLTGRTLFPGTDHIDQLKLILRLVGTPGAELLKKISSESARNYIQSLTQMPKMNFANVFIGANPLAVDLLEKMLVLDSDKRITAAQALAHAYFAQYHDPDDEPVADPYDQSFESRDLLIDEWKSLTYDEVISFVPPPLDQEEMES

Target: 3×Flag-tagged mouse Delta like 1 intracellular domain (mouse) (UniProt Q61483)
Assay: affinity purification with mass spectrometry; HEK293T cells transfected with 3×Flag-tagged mouse D1ICD or empty vector; IP with anti-Flag M2 resin, elution with 3×Flag peptide, SDS-PAGE, LC-MS/MS; two independent experiments, proteins found in a control IP omitted

| binding | Molecule |
| --- | --- |
| binds | extracellular signal-regulated-kinase 2 (HEK293T) (from UniProt P28482 1-360) |
| binds | extracellular signal-regulated-kinase (ERK) 1 (HEK293T) (from UniProt P27361 1-379) |
| binds | growth factor receptor-bound protein 2 (from UniProt P62993 1-217) |
| binds | membrane-associated guanylate kinase, WW and PDZ domain-containing protein (MAGI) 1 (from UniProt Q96QZ7 1-1491) |
| binds | mitogen-activated protein kinase 14 (from UniProt Q16539 1-360) |
| binds | membrane-associated guanylate kinase, WW and PDZ domain-containing protein 3 (protein, UniProt Q5TCQ9 1-1481) MSKTLKKKKHWLSKVQECAVSWAGPPGDFGAEIRGGAERGEFPYLGRLREEPGGGTCCVVSGKAPSPGDVLLEVNGTPVSGLTNRDTLAVIRHFREPIRLKTVKPGKVINKDLRHYLSLQFQKGSIDHKLQQVIRDNLYLRTIPCTTRAPRDGEVPGVDYNFISVEQFKALEESGALLESGTYDGNFYGTPKPPAEPSPFQPDPVDQVLFDNEFDAESQRKRTTSVSKMERMDSSLPEEEEDEDKEAINGSGNAENRERHSESSDWMKTVPSYNQTNSSMDFRNYMMRDETLEPLPKNWEMAYTDTGMIYFIDHNTKTTTWLDPRLCKKAKAPEDCEDGELPYGWEKIEDPQYGTYYVDHLNQKTQFENPVEEAKRKKQLGQVEIGSSKPDMEKSHFTRDPSQLKGVLVRASLKKSTMGFGFTIIGGDRPDEFLQVKNVLKDGPAAQDGKIAPGDVIVDINGNCVLGHTHADVVQMFQLVPVNQYVNLTLCRGYPLPDDSEDPVVDIVAATPVINGQSLTKGETCMNPQDFKPGAMVLEQNGKSGHTLTGDGLNGPSDASEQRVSMASSGSSQPELVTIPLIKGPKGFGFAIADSPTGQKVKMILDSQWCQGLQKGDIIKEIYHQNVQNLTHLQVVEVLKQFPVGADVPLLILRGGPPSPTKTAKMKTDKKENAGSLEAINEPIPQPMPFPPSIIRSGSPKLDPSEVYLKSKTLYEDKPPNTKDLDVFLRKQESGFGFRVLGGDGPDQSIYIGAIIPLGAAEKDGRLRAADELMCIDGIPVKGKSHKQVLDLMTTAARNGHVLLTVRRKIFYGEKQPEDDSSQAFISTQNGSPRLNRAEVPARPAPQEPYDVVLQRKENEGFGFVILTSKNKPPPGVIPHKIGRVIEGSPADRCGKLKVGDHISAVNGQSIVELSHDNIVQLIKDAGVTVTLTVIAEEEHHGPPSGTNSARQSPALQHRPMGQSQANHIPGDRSALEGEIGKDVSTSYRHSWSDHKHLAQPDTAVISVVGSRHNQNLGCYPVELERGPRGFGFSLRGGKEYNMGLFILRLAEDGPAIKDGRIHVGDQIVEINGEPTQGITHTRAIELIQAGGNKVLLLLRPGTGLIPDHGDWDINNPSSSNVIYDEQSPLPPSSHFASIFEESHVPVIEESLRVQICEKAEELKDIVPEKKSTLNENQPEIKHQSLLQKNVSKRDPPSSHGHSNKKNLLKVENGVTRRGRSVSPKKPASQHSEEHLDKIPSPLKNNPKRRPRDQSLSPSKGENKSCQVSTRAGSGQDQCRKSRGRSASPKKQQKIEGSKAPSNAEAKLLEGKSRRIAGYTGSNAEQIPDGKEKSDVIRKDAKQNQLEKSRTRSPEKKIKRMVEKSLPSKMTNKTTSKEVSENEKGKKVTTGETSSSNDKIGENVQLSEKRLKQEPEEKVVSNKTEDHKGKELEAADKNKETGRFKPESSSPVKKTLITPGPWKVPSGNKVTGTIGMAEKRQ |

These are yes or no findings as the source states them, for the method shown. In cells and extracts the contact can be indirect. Here binding means that the protein was enriched with, or labelled near, the bait; the list need not be complete.
